Measured values as given in patent US20030104965A1, “Laundry sanitizer containing partially halogenated hydantoins” (Lonza Inc., priority 2001, published 2003).

Legend:
[1] = Fabric damage test with bleach powder bundled in swatch; details: equal chlorine basis (50 ppm chlorine in 64 liter wash), 45° C. water 30 minutes, 75° C. drying
[2] = as above; details: equal chlorine basis (50 ppm chlorine in 64 liter wash), 45° C. water 30 minutes, 75° C. drying; remark: listed apart in the source

Compound	cycles until holes in wool swatch [1]	cycles until holes in silk swatch [2]
O=c1nc([O-])n(Cl)c(=O)n1Cl.[Na+] [DCCA, sodium dichloroisocyanurate]	7 cycles	12 cycles
O=c1n(Cl)c(=O)n(Cl)c(=O)n1Cl [TCCA, trichloroisocyanuric acid]	4 cycles	7 cycles
monochloro-5,5-dimethyl hydantoin [MCDMH]	> 23 cycles	> 23 cycles
